# Measurements reported in the supplement of paper PMC8728848.
# Some of the results follow.
# B1: PX14379D-pdi-530-26-530 (Parabacteroides distasonis) (protein)
# chain: DETVYDKLPADDFGQSTAELNALIGNSHNTMKKFWTEYMHLSECSGSMAVTPTRRGGDWYDGGQYREIYMHTWTSQTSRVKSAWKAATEAIGTCNEAIRKLQNSEILTEEEKAQDVADLRGVRAFWIYVMMDYWGNIPLLTEFHPTDKVFPGNSSRQEVFDWLIQEVEEIKDICPPATTENYGSFTQGAAYSLLAKLYLNAEAWGVTFSGNAYQKVIDNCDKVMAMGYILEPNWKDNFSVTNENSKEAILAATFSSSDTGNDGNVKNELHNNTLHYKDYLSLGITASGTWNGICAQPEYVRLFDEEDARLDGTFLTGLMIDKSTGKPIMTDHNNELNHTIDVNMIPGMEYDGTNWSAVEQHDGARCFKWEFASDLTSSMGNDFHIFRLADIYLMKAEALLRGGGSVSEATALVNTIRERGYGNSDHNYATVTLKEVQLERRLELAWEVYSRQDDIRFGCFTTGMWPQSNCERKADDYLKLLPVSQDAWQVNPNLKQNPGYAAFSK
# Tests used:
# Test in all cases: glycan array binding signal (z-score within array); higher = stronger binding
# Conditions in all cases: glycan notation: IUPAC condensed, linker removed
# [1] = target: Neu5Ac(a2-3)Gal(b1-3)GalNAc
# How it was run: (§1)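 Columns mapping to the same glycan were averaged after glycan names were converted to IUPAC-condensed notation. The data come from 3228 arrays in the Consortium for Functional Glycomics database, limited to those with an available protein sequence. Binding is reported as a within-array Z-score averaged across arrays of one protein sequence and across linkers.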
# [2] = target: Neu5Ac(a2-3)Gal(b1-3)GalNAc(b1-3)Gal(a1-4)Gal(b1-4)Glc
# How it was run: as §1
# [3] = target: Neu5Ac(a2-3)Gal(b1-3)GalNAc(b1-4)[Neu5Ac(a2-3)]Gal(b1-4)Glc
# How it was run: as §1
# [4] = target: Neu5Ac(a2-3)Gal(b1-3)GalNAc(b1-4)[Neu5Ac(a2-8)Neu5Ac(a2-3)]Gal(b1-4)Glc
# How it was run: as §1
# [5] = target: Neu5Ac(a2-3)Gal(b1-3)GalNAc6S
# How it was run: as §1
# [6] = target: Neu5Ac(a2-3)Gal(b1-3)GlcNAc
# How it was run: as §1
# [7] = target: Neu5Ac(a2-3)Gal(b1-3)GlcNAc(b1-2)Man
# How it was run: as §1
# [8] = target: Neu5Ac(a2-3)Gal(b1-3)GlcNAc(b1-2)Man(a1-3)[GlcNAc(b1-4)][Neu5Ac(a2-3)Gal(b1-3)GlcNAc(b1-2)Man(a1-6)]Man(b1-4)GlcNAc(b1-4)GlcNAc
# How it was run: as §1
# [9] = target: Neu5Ac(a2-3)Gal(b1-3)GlcNAc(b1-2)Man(a1-3)[Neu5Ac(a2-3)Gal(b1-3)GlcNAc(b1-2)Man(a1-6)]Man(b1-4)GlcNAc(b1-4)GlcNAc
# How it was run: as §1
# [10] = target: Neu5Ac(a2-3)Gal(b1-3)GlcNAc(b1-3)Gal(b1-3)GlcNAc
# How it was run: as §1
# [11] = target: Neu5Ac(a2-3)Gal(b1-3)GlcNAc(b1-3)Gal(b1-4)GlcNAc
# How it was run: as §1
# [12] = target: Neu5Ac(a2-3)Gal(b1-3)GlcNAc(b1-3)GalNAc
# How it was run: as §1
# [13] = target: Neu5Ac(a2-3)Gal(b1-3)GlcNAc(b1-4)Gal(b1-4)Glc
# How it was run: as §1
# [14] = target: Neu5Ac(a2-3)Gal(b1-3)GlcNAc(b1-6)GalNAc
# How it was run: as §1
# [15] = target: Neu5Ac(a2-3)Gal(b1-3)GlcNAc6S
# How it was run: as §1
# [16] = target: Neu5Ac(a2-3)Gal(b1-3)[Fuc(a1-4)]GlcNAc
# How it was run: as §1
# [17] = target: Neu5Ac(a2-3)Gal(b1-3)[Fuc(a1-4)]GlcNAc(b1-3)Gal(b1-3)[Fuc(a1-4)]GlcNAc
# How it was run: as §1
# [18] = target: Neu5Ac(a2-3)Gal(b1-3)[Fuc(a1-4)]GlcNAc(b1-3)Gal(b1-4)[Fuc(a1-3)]GlcNAc
# How it was run: as §1
# [19] = target: Neu5Ac(a2-3)Gal(b1-3)[GlcNAc(b1-6)]GalNAc
# How it was run: as §1
# [20] = target: Neu5Ac(a2-3)Gal(b1-3)[Neu5Ac(a2-6)]GalNAc
# How it was run: as §1
# [21] = target: Neu5Ac(a2-3)Gal(b1-3)[Neu5Ac(a2-6)]GlcNAc(b1-3)[Fuc(a1-3)[Gal(b1-4)]GlcNAc(b1-6)]Gal(b1-4)Glc
# How it was run: as §1
# [22] = target: Neu5Ac(a2-3)Gal(b1-3)]Neu5Ac(a2-3)Gal(b1-4)]GlcNAc
# How it was run: as §1
# [23] = target: Neu5Ac(a2-3)Gal(b1-4)Glc
# How it was run: as §1
# [24] = target: Neu5Ac(a2-3)Gal(b1-4)GlcNAc
# How it was run: as §1
# [25] = target: Neu5Ac(a2-3)Gal(b1-4)GlcNAc(b1-2)Man
# How it was run: as §1
# [26] = target: Neu5Ac(a2-3)Gal(b1-4)GlcNAc(b1-2)Man(a1-3)[GlcNAc(b1-4)][Neu5Ac(a2-3)Gal(b1-4)GlcNAc(b1-2)Man(a1-6)]Man(b1-4)GlcNAc(b1-4)GlcNAc
# How it was run: as §1
# [27] = target: Neu5Ac(a2-3)Gal(b1-4)GlcNAc(b1-2)Man(a1-3)[Neu5Ac(a2-3)Gal(b1-4)GlcNAc(b1-2)Man(a1-6)]Man(b1-4)GlcNAc(b1-4)GlcNAc
# How it was run: as §1
# [28] = target: Neu5Ac(a2-3)Gal(b1-4)GlcNAc(b1-2)Man(a1-3)[Neu5Ac(a2-3)Gal(b1-4)GlcNAc(b1-2)Man(a1-6)]Man(b1-4)GlcNAc(b1-4)[Fuc(a1-6)]GlcNAc
# How it was run: as §1
# [29] = target: Neu5Ac(a2-3)Gal(b1-4)GlcNAc(b1-2)Man(a1-3)[Neu5Ac(a2-6)Gal(b1-4)GlcNAc(b1-2)Man(a1-6)]Man(b1-4)GlcNAc(b1-4)GlcNAc
# How it was run: as §1
# [30] = target: Neu5Ac(a2-3)Gal(b1-4)GlcNAc(b1-2)[Neu5Ac(a2-3)Gal(b1-4)GlcNAc(b1-4)]Man(a1-3)[GlcNAc(b1-4)][Neu5Ac(a2-3)Gal(b1-4)GlcNAc(b1-2)[Neu5Ac(a2-3)Gal(b1-4)GlcNAc(b1-6)]Man(a1-6)]Man(b1-4)GlcNAc(b1-4)GlcNAc
# How it was run: as §1
# [31] = target: Neu5Ac(a2-3)Gal(b1-4)GlcNAc(b1-2)[Neu5Ac(a2-3)Gal(b1-4)GlcNAc(b1-4)]Man(a1-3)[GlcNAc(b1-4)][Neu5Ac(a2-3)Gal(b1-4)GlcNAc(b1-4)Man(a1-6)]Man(b1-4)GlcNAc(b1-4)GlcNAc
# How it was run: as §1
# [32] = target: Neu5Ac(a2-3)Gal(b1-4)GlcNAc(b1-2)[Neu5Ac(a2-3)Gal(b1-4)GlcNAc(b1-6)]Man(a1-6)[Neu5Ac(a2-3)Gal(b1-4)GlcNAc(b1-2)Man(a1-3)]Man(b1-4)GlcNAc(b1-4)GlcNAc
# How it was run: as §1
# [33] = target: Neu5Ac(a2-3)Gal(b1-4)GlcNAc(b1-2)[Neu5Ac(a2-3)Gal(b1-4)GlcNAc(b1-6)]Man(a1-6)[Neu5Ac(a2-3)Gal(b1-4)GlcNAc(b1-2)Man(a1-3)][GlcNAc(b1-4)]Man(b1-4)GlcNAc(b1-4)GlcNAc
# How it was run: as §1
# [34] = target: Neu5Ac(a2-3)Gal(b1-4)GlcNAc(b1-3)Gal
# How it was run: as §1
# [35] = target: Neu5Ac(a2-3)Gal(b1-4)GlcNAc(b1-3)Gal(b1-3)GlcNAc
# How it was run: as §1
# [36] = target: Neu5Ac(a2-3)Gal(b1-4)GlcNAc(b1-3)Gal(b1-4)GlcNAc
# How it was run: as §1
# [37] = target: Neu5Ac(a2-3)Gal(b1-4)GlcNAc(b1-3)Gal(b1-4)GlcNAc(b1-2)Man(a1-3)[Neu5Ac(a2-3)Gal(b1-4)GlcNAc(b1-3)Gal(b1-4)GlcNAc(b1-2)Man(a1-6)]Man(b1-4)GlcNAc(b1-4)GlcNAc
# How it was run: as §1
binder,measurement,setting,value
B1,glycan array binding signal (z-score),[1],-0.635
same,glycan array binding signal (z-score),[2],0.43
same,glycan array binding signal (z-score),[3],-0.359
same,glycan array binding signal (z-score),[4],-0.532
same,glycan array binding signal (z-score),[5],-0.451
same,glycan array binding signal (z-score),[6],-0.529
same,glycan array binding signal (z-score),[7],0.26
same,glycan array binding signal (z-score),[8],-0.449
same,glycan array binding signal (z-score),[9],-0.573
same,glycan array binding signal (z-score),[10],-0.698
same,glycan array binding signal (z-score),[11],-0.348
same,glycan array binding signal (z-score),[12],-0.499
same,glycan array binding signal (z-score),[13],-0.388
same,glycan array binding signal (z-score),[14],0.072
same,glycan array binding signal (z-score),[15],-0.195
same,glycan array binding signal (z-score),[16],0.024
same,glycan array binding signal (z-score),[17],-0.559
same,glycan array binding signal (z-score),[18],-1.12
same,glycan array binding signal (z-score),[19],0.243
same,glycan array binding signal (z-score),[20],-0.358
same,glycan array binding signal (z-score),[21],-0.248
same,glycan array binding signal (z-score),[22],-0.6
same,glycan array binding signal (z-score),[23],-0.046
same,glycan array binding signal (z-score),[24],-0.826
same,glycan array binding signal (z-score),[25],0.648
same,glycan array binding signal (z-score),[26],-0.322
same,glycan array binding signal (z-score),[27],0.206
same,glycan array binding signal (z-score),[28],0.415
same,glycan array binding signal (z-score),[29],-0.885
same,glycan array binding signal (z-score),[30],-0.169
same,glycan array binding signal (z-score),[31],-0.482
same,glycan array binding signal (z-score),[32],0.553
same,glycan array binding signal (z-score),[33],-1.33
same,glycan array binding signal (z-score),[34],-0.757
same,glycan array binding signal (z-score),[35],-1.24
same,glycan array binding signal (z-score),[36],-1.08
same,glycan array binding signal (z-score),[37],0.558

# Fetched one by one from the list above:
binder,measurement,setting,value
B1,glycan array binding signal (z-score),[36],-1.08
same,glycan array binding signal (z-score),[27],0.206
